PubChem BioAssay AID1259415 (National Center for Advancing Translational Sciences (NCATS), 2018)
Hit rate of the full screen: of about 410,000 compounds, about 18,000 (4.4%) were called active. The shares of active, inactive and inconclusive entries below differ from those in the screen. Rule as the data show it: active = activity change below about -60%; inconclusive = no clear call, values can overlap the other calls; inactive = above about -39%.

Test: qHTS Assay for inhibitors of the human cytomegalovirus (HCMV)
Conditions: HFF cells, HCMV-luciferase reporter, 72 h; at 57.5 µM; stronger effect = lower value
How it was run: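 Cell-based, HFFs, 1000 cells/well, 16 h 37C; cpds in DMSO + HCMV-luc, MOI 1 PFU/cell; 72 h 37C; OneGlo luminescence after 5 min RT; norm. to buffer vs Salinomycin 10uM.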
% is scaled to controls: 0 for no effect and ±100 for the full control effect.

SMILES	activity change, negative = inhibition
CCOc1cc(C(=O)Nc2ccc(S(=O)(=O)Nc3cnc4ccccc4n3)cc2)cc(OCC)c1OCC	inconclusive: -49.8%
CCOc1ccc(CNC(=O)CCn2c(=O)c3cccn3c3cccnc32)cc1	inconclusive: -43.3%
COc1ccc(Cc2nnc(N/N=C/c3ccc(O)cc3)[nH]c2=O)cc1OC	active: -99.7%
CCOC(=O)c1c(C)[nH]c(C)c1C(=O)CSc1nc2ccccc2c(=O)n1-c1ccc(CC)cc1	inconclusive: -54.8%
CCCCn1c(N)c(N(CCOC)C(=O)CC(NC(=O)c2ccccc2)c2ccccc2)c(=O)[nH]c1=O (stereo unspecified)	inactive: -25.7%
Nn1cnnc1SCC(=O)Nc1ccc(C2CCCCC2)cc1	inactive: 4.26%
O=C(Nc1ccc(S(=O)(=O)N2CCCC2)cc1)C1CCCN1C(=O)c1cccs1 (stereo unspecified)	active: -101%
O=C1Nc2cc(C(=O)NCCCN3CCCC3)ccc2S/C1=C\c1ccccc1	inconclusive: -47.4%
O=C(NCc1csc2ccc(Cl)cc12)Nc1ccccc1	inconclusive: -50.9%
CC(C)(C)NC(=O)C(c1ccccc1)n1c(-c2ccc(-c3ccccc3)cc2)nc2ccccc21 (stereo unspecified)	inactive: -1.73%
O=C(CCN1CCCO1)N1CCCC(Nc2cccc(F)c2)C1 (stereo unspecified)	inconclusive: -53.8%
CCCCCc1c(-c2ccccc2F)ncn1CCc1ccccc1OC	inconclusive: -54.4%
COc1ccc(C(=O)Nc2ccc3c(c2)N(C2CCCC2)C(=O)c2ccccc2S3)cc1OC	active: -70.2%
COc1ccc(C(=O)N/N=C/c2ccc(OC)c(OS(=O)(=O)c3ccccc3)c2)cc1	inconclusive: -52.4%
CCN(CC)c1ccc(S(=O)(=O)N2CCOCC2)cc1NC(=O)CSc1n[nH]c(N)n1	inconclusive: -43.5%
CCOC(=O)c1c(S(=O)(=O)N(C)Cc2ccccc2)c(C)n(C)c1C	inconclusive: -52%
COc1cccc(C(=O)N2C[C@H]3C[C@@H](C2)c2cccc(=O)n2C3)c1	inconclusive: -58.4%
CCOc1cccc(SCc2noc(C(=O)NC(C)C)c2C(=O)O)c1	active: -61.6%
Cc1ccc2nc(SC(C)C(=O)NCc3ccc4c(c3)OCO4)[nH]c2c1 (stereo unspecified)	inconclusive: -40.9%
COc1cccc(/C=N/NC(=O)c2ccc3nc[nH]c3c2)c1O	inactive: 0%
Cc1nn(C)c(Oc2ccccc2)c1CCNS(=O)(=O)c1ccc(F)cc1	inconclusive: -40.1%
CC(C)COC(=O)Cn1cnc2ccc(Br)cc2c1=O	inconclusive: -40.9%

SMILES	activity change, negative = inhibition
O=C(CCS(=O)(=O)Cc1ccccc1F)NCCc1ccc(Cl)cc1	inactive: -28%
CC(C)(C)c1cc(C(=O)N/N=C/c2ccccc2O)n(-c2ccccc2)n1	active: -97.4%
CC1CCN(C(=O)c2ccc(S(=O)(=O)Cc3cc(F)ccc3F)c([N+](=O)[O-])c2)CC1	active: -83.1%
CSc1nc2c(c(=O)[nH]1)C(c1cccc(Br)c1)CC(=O)N2 (stereo unspecified)	inconclusive: -48%
CC(=O)c1ccc(S(=O)(=O)N2CCN(C(=O)c3ccc(-n4nc(C)c(Cl)c4C)cc3)CC2)cc1	active: -90.1%
Cc1ccc(F)cc1NC(=O)c1ccc(Cn2nc(N3CCN(c4ccccc4)CC3)ccc2=O)o1	active: -73.2%
C=CCNC(=O)c1c(Cl)nc(C)c([N+](=O)[O-])c1C	inconclusive: -43.8%
O=C(Cn1c(-c2cccs2)cc2cc(F)ccc21)NCCCN1CCN(c2ccccc2F)CC1	inconclusive: -46.9%
c1ccc(C2CC2)c(OCC2=NCCN2)c1	inconclusive: -52.1%
NNC(=O)c1cccc(S(=O)(=O)Nc2cc(Cl)ccc2Cl)c1	inconclusive: -42.1%
CCOC(=O)c1c(C)nn(Cc2ccccc2)c1N	inactive: 7.63%
COc1c(F)c(F)c(C(=O)Nc2cccc(Cl)c2N2CCOCC2)c(F)c1F	inconclusive: -44.1%
CCn1c(NCCO)nc2c(c1=O)C(C)(CC)Cc1ccccc1-2 (stereo unspecified)	inactive: -21.3%
O=C(NNc1ccc(F)cc1F)c1c(F)cccc1Cl	inconclusive: -55%
O=C1C(Cc2ccccc2)S/C(=N/N=C/c2ccco2)N1c1ccccc1 (stereo unspecified)	inactive: 37%
Cc1nc(N2CCCC2)c2nnn(Cc3ccccc3Cl)c2n1	inconclusive: -51.2%
CCn1ccc(C(=O)Oc2ccc(C(C)C)cc2)n1	inconclusive: -41.7%
COCCNC(=O)CCc1nnc(C2(c3ccc(Cl)cc3)CCC2)o1	inactive: -24.8%
CCc1ccc(NC(=O)CN2CCSc3ccc(S(=O)(=O)N4CCCC4)cc32)cc1	inconclusive: -46.6%
COc1ccccc1S(=O)(=O)Cc1ccc(C(=O)N2CCN(c3cccc(Cl)c3)CC2)o1	active: -66.9%
OCC1(Cc2ccccc2)CCN(Cc2cnc(-c3ccc(Cl)cc3)nc2)CC1	active: -66.7%
O=C1CN(C(=O)c2cc3ccccc3oc2=O)C(c2ccc(F)cc2)c2cc(Br)ccc2N1 (stereo unspecified)	inconclusive: -43.4%

SMILES	activity change, negative = inhibition
Cc1nnc(NC(=O)CN2CCN(Cc3ccc(F)cc3Cl)CC2)s1	inactive: 11.7%
CCN(C(=O)CN1C(=O)S/C(=C\c2ccc(Cl)cc2)C1=O)C1CCS(=O)(=O)C1 (stereo unspecified)	inconclusive: -50.8%
Cc1c(C(=O)Nc2ccc(S(=O)(=O)N(C)C3CCN(C)CC3)cc2)oc2c(Cl)cccc12	inactive: -35.2%
O=C(Nc1ccc(Cl)cc1)NN1CC(=O)N(c2cccc(C(F)(F)F)c2)CC1=O	inactive: 22.9%
O=C1COc2ccc(NC(=O)N3CCN(c4ccc(F)cc4)CC3)cc2N1	inconclusive: -50.2%
C=CCN1C(=O)C(O)(CC(=O)c2ccccn2)c2ccccc21 (stereo unspecified)	inactive: 51.3%
Cc1nc(CN(C)Cc2nc(Cc3cccc(F)c3)no2)cs1	inactive: -31.9%
Cc1c(Cl)cccc1NC(=S)NNc1ncc(C(F)(F)F)cc1Cl	active: -102%
O=C(CCCN1C(=O)c2ccccc2C1=O)NCCN1C(=O)S/C(=C\c2cccs2)C1=O	inconclusive: -53.9%
OC(c1cccnc1)c1nc(/C=C/c2ccc(C(F)(F)F)cc2)cs1 (stereo unspecified)	inconclusive: -47.1%
CC(C)Nc1nc(NNc2nc(Cl)nc(NC(C)(C)C)n2)nc(NC(C)C)n1	inactive: 74%
O=C(COCc1cc(-c2ccco2)on1)Nc1cccc(O)c1	inactive: 0%
CC(C)N(CCNC(=O)c1nn(Cc2ccccc2)c(=O)c2ccccc12)C(C)C	inconclusive: -42.9%
CCC/C(=N/NC(=O)c1ccccc1Cl)c1ccccc1	inconclusive: -40.4%
O=S(=O)(NCc1ccccc1)NCc1cccc(C(F)(F)F)c1	inconclusive: -59.9%
Cc1ccc(CNC(=O)c2cc(=O)c3ccc(C)cc3o2)cc1	inconclusive: -53%
Cc1ccc2c(c1)N(CC(=O)OCC(=O)NCc1ccccc1)C(=O)CO2	inactive: 0.223%
Cn1c(SCc2ccccc2)nnc1-c1ccc2c(c1)OCO2	inactive: -27.5%
CCC(C)C(=O)OCC1(c2ccc(C)cc2OC(=O)C(C)C)CO1 (stereo unspecified)	inactive: 4.84%
COC(=O)CN(C)C(=O)c1ccc(OC)c(OC2CCN(C(C)C)CC2)c1	inactive: 51.4%
COc1cccc(CNc2ccc(N3CCCCC3)cc2)c1OC	inconclusive: -48.7%
Cc1ccc(S(=O)(=O)N2C[C@H]3[C@H]4C(=O)N(Cc5ccccc5)C(=O)[C@H]4CC(=O)[C@H]3[C@@H]2c2ccccc2F)cc1	inconclusive: -59.1%

SMILES	activity change, negative = inhibition
CSc1nc(O)c(C(c2ccc(C)cc2)c2c(O)nc(SC)[nH]c2=O)c(=O)[nH]1	inactive: -20.3%
CCc1ccc(NC(=O)CSc2ccc(-c3ccco3)nn2)cc1	inactive: 14.1%
CC(C)OC(=O)c1cn(-c2ccccc2)nc1-c1ccc2c(c1)OCCO2	inconclusive: -40.3%
CCOC(=O)C1CN(c2cc3c(cc2F)c(=O)c(C(=O)O)cn3CC)OC1C(=O)OCC (stereo unspecified)	inconclusive: -49.7%
OCCN1CCN(CC(O)COC(c2ccc(F)cc2)c2ccc(F)cc2)CC1 (stereo unspecified)	inactive: -15.6%
CC(C)c1ccc(N2CCN(C(=O)c3ccccc3NC(=O)/C=C\C(=O)O)CC2)cc1	inactive: 55.2%
Cc1ccc(-c2nc(S(=O)(=O)c3ccc(C)cc3)c(SCC(=O)Nc3ccc(F)cc3)o2)cc1	inactive: -1.65%
COc1ccccc1NS(=O)(=O)c1cc(NC(=O)CC(C)(C)C)ccc1N1CCOCC1	inconclusive: -42.4%
C/C(=N/NS(=O)(=O)c1ccc(C)cc1C)c1c[nH]c2ccccc12	inconclusive: -42.8%
Cc1cc(-c2ccc(S(=O)(=O)N3CCc4ccccc4C3)s2)on1	active: -77.4%
CCCCNC(=O)C(NC(=O)Cc1cc(C(F)(F)F)cc(C(F)(F)F)c1)C(=O)c1ccccc1 (stereo unspecified)	inactive: -8.8%
Cc1ccc(CN2CCN(/N=C\c3cccc([N+](=O)[O-])c3)CC2)cc1	inconclusive: -47.1%
S=C(NCc1ccco1)Nc1ccc(Cl)cc1Cl	active: -73.6%
Cc1ccc(-c2nc(CN(C)Cc3cccc4cnccc34)c(C)o2)s1	active: -66.6%
O=C(Nc1cc(F)ccc1F)c1ccc(-n2cncn2)c([N+](=O)[O-])c1	inactive: -5.14%
CCOc1ccc(CN(C(=O)c2nc(SC)ncc2Cl)C2CCS(=O)(=O)C2)cc1 (stereo unspecified)	inactive: 7.71%
CC(C)CNCC1OCc2ccccc2CO1	inactive: -21.2%
C/C(CC1CC(COCCC(C)C)OC1=O)=N\NC(N)=S (stereo unspecified)	inactive: -3.52%
N#Cc1c2nc3ccccc3nc2n2cc(NC(=O)c3ccc(F)cc3)ccc12	inconclusive: -58%

Some of the entries so far, bar-delimited:
SMILES | activity change, negative = inhibition
CCCCNC(=O)C(NC(=O)Cc1cc(C(F)(F)F)cc(C(F)(F)F)c1)C(=O)c1ccccc1 (stereo unspecified) | inactive: -8.8%
Cc1ccc(CN2CCN(/N=C\c3cccc([N+](=O)[O-])c3)CC2)cc1 | inconclusive: -47.1%
